This assay addresses T1, GST-IFNAR1cyt (GST fusion protein containing the cytoplasmic domain of IFNAR1) (UniProt P17181).
T1 sequence: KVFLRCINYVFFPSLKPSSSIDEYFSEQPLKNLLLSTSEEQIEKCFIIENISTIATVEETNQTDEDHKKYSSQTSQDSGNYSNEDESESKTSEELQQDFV
Briefly: pull-down; about 2 ug GST fusion protein bound to glutathione-Sepharose, His-tagged protein in solution; 100 ul binding buffer (0.1% Nonidet P-40, 10% glycerol, 50 mM NaCl, 50 mM Tris-HCl pH 8, 1 mM DTT) with 0.5% BSA and protease inhibitors, 60 min at 4°C; three washes; immunoblot with TYK2 Abs; both ….

Results are given in words; binding and its absence hold for the method and conditions named. Sequences can lack the tags named with a protein.

B1: His-TYK2-FERM-SH2 ΔE8 (N-ter portion of TYK2, aa 1-591, lacking the exon 8-encoded aa 338-403) (domain or fragment, UniProt P29597)
chain: MPLRHWGMARGSKPVGDGAQPMAAMGGLKVLLHWAGPGGGEPWVTFSESSLTAEEVCIHIAHKVGITPPCFNLFALFDAQAQVWLPPNHILEIPRDASLMLYFRIRFYFRNWHGMNPREPAVYRCGPPGTEASSDQTAQGMQLLDPASFEYLFEQGKHEFVNDVASLWELSTEEEIHHFKNESLGMAFLHLCHLALRHGIPLEEVAKKTSFKDCIPRSFRRHIRQHSALTRLRLRNVFRRFLRDFQPGRLSQQMVMVKYLATLERLAPRFGTERVPVCHLRLLAQAEGEPCYIRDSGVAPTDPGPESAAGPPTHEVLVTGTGGIQWWPVEEEVNKEEELSLPSRAAALSFVSLVDGYFRLTADSSHYLCHEVAPPRLVMSIRDGIHGPLLEPFVQAKLRPEDGLYLIHWSTSHPYRLILTVAQRSQAPDGMQSLRLRKFPIEQQDGAFVLEGWGRSFPSVRELGAALQGCLLRAGDDCFSLRRCCLPQPGETSNLIIMRGARASPRTLNLSQLSFHRVDQKEITQ
With B1, the binding result is “no binding”.

(Values after publication PMC6974145.)
